Record: PubChem BioAssay AID1259405 (NCATS, 2018)

Test: 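Mouse-designed siRNAs used to find CHO productivity engineering targets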 (primary screen)
Cells: Chinese hamster CHO-K1 ovary cells with stable secreted eGFP expression
Reagents: single siRNA against mouse genes, 0.8 pmol siRNA per well (2 µl of 400 nM stock)
Duration: 3 days
Read-out: 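Per-well intracellular GFP measured by laser scanning cytometry, plus viability from ATP luminescence, each relative to plate median of non-targeting control wells, in %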
Reading the numbers: GFP, % of control: higher = more GFP per well, higher productivity; viability (ATP), % of control: higher = more viable cells (more ATP)
Call rule: 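Called active when intracellular GFP, relative to negative control, is at or above 120%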
Shown is a random part of about 50,000 reagents tested. About 4,000 of all reagents (8%) count as active. 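Mouse siRNA library applied to hamster cells; one well for each siRNA.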

Mpst (mercaptopyruvate sulfurtransferase) [SID363545655]
- GFP, % of control: 28.4
- viability (ATP), % of control: 30.1
- Call: inactive

Mpst (mercaptopyruvate sulfurtransferase) [SID363549168]
- GFP, % of control: 92.2
- viability (ATP), % of control: 96.5
- Call: inactive

Mpst (mercaptopyruvate sulfurtransferase) [SID363562974]
- GFP, % of control: 71.2
- viability (ATP), % of control: 73
- Call: inactive

Il1f10 (interleukin 1 family, member 10) [SID363541535]
- GFP, % of control: 44.8
- viability (ATP), % of control: 42
- Call: inactive

Il1f10 (interleukin 1 family, member 10) [SID363556162]
- GFP, % of control: 55.3
- viability (ATP), % of control: 87
- Call: inactive

Il1f10 (interleukin 1 family, member 10) [SID363566451]
- GFP, % of control: 84.1
- viability (ATP), % of control: 68.9
- Call: inactive

Ptpn22 [SID363547758]
- GFP, % of control: 50.9
- viability (ATP), % of control: 47.1
- Call: inactive

Ptpn22 [SID363558527]
- GFP, % of control: 67
- viability (ATP), % of control: 65.8
- Call: inactive

Ptpn22 [SID363560285]
- GFP, % of control: 112
- viability (ATP), % of control: 74.9
- Call: inactive

Zc3h7a (zinc finger CCCH type containing 7 A) [SID363556884]
- GFP, % of control: 41.6
- viability (ATP), % of control: 38.2
- Call: inactive

Zc3h7a (zinc finger CCCH type containing 7 A) [SID363563788]
- GFP, % of control: 42.5
- viability (ATP), % of control: 55.4
- Call: inactive

Zc3h7a (zinc finger CCCH type containing 7 A) [SID363587334]
- GFP, % of control: 62.2
- viability (ATP), % of control: 117
- Call: inactive

Tas2r106 (taste receptor, type 2, member 106) [SID363556510]
- GFP, % of control: 93.6
- viability (ATP), % of control: 86
- Call: inactive

Tas2r106 (taste receptor, type 2, member 106) [SID363586960]
- GFP, % of control: 100
- viability (ATP), % of control: 101
- Call: inactive

Tas2r106 (taste receptor, type 2, member 106) [SID363589068]
- GFP, % of control: 85.6
- viability (ATP), % of control: 96.3
- Call: inactive

Zfp646 (zinc finger protein 646) [SID363573432]
- GFP, % of control: 126
- viability (ATP), % of control: 67.1
- Call: active

Zfp646 (zinc finger protein 646) [SID363588671]
- GFP, % of control: 98.6
- viability (ATP), % of control: 73.5
- Call: inactive

Ccdc7b (coiled-coil domain containing 7B) [SID363540820]
- GFP, % of control: 69.9
- viability (ATP), % of control: 97.7
- Call: inactive

Ccdc7b (coiled-coil domain containing 7B) [SID363543271]
- GFP, % of control: 54.5
- viability (ATP), % of control: 41.6
- Call: inactive

Ccdc7b (coiled-coil domain containing 7B) [SID363552764]
- GFP, % of control: 45.3
- viability (ATP), % of control: 83
- Call: inactive

Tead2 (TEA domain family member 2) [SID363573711]
- GFP, % of control: 72.3
- viability (ATP), % of control: 81.6
- Call: inactive

Tead2 (TEA domain family member 2) [SID363581455]
- GFP, % of control: 27.3
- viability (ATP), % of control: 33.6
- Call: inactive

Tead2 (TEA domain family member 2) [SID363583919]
- GFP, % of control: 89.9
- viability (ATP), % of control: 99.1
- Call: inactive

Btnl10 (butyrophilin-like 10) [SID363547047]
- GFP, % of control: 77.1
- viability (ATP), % of control: 70.5
- Call: inactive

Btnl10 (butyrophilin-like 10) [SID363549859]
- GFP, % of control: 75
- viability (ATP), % of control: 108
- Call: inactive

Btnl10 (butyrophilin-like 10) [SID363587913]
- GFP, % of control: 94.3
- viability (ATP), % of control: 96.8
- Call: inactive

Or5b21 (olfactory receptor family 5 subfamily B member 21) [SID363544575]
- GFP, % of control: 99.1
- viability (ATP), % of control: 41.3
- Call: inactive

Or5b21 (olfactory receptor family 5 subfamily B member 21) [SID363550903]
- GFP, % of control: 85.7
- viability (ATP), % of control: 93.7
- Call: inactive

Or5b21 (olfactory receptor family 5 subfamily B member 21) [SID363557452]
- GFP, % of control: 97.6
- viability (ATP), % of control: 58.9
- Call: inactive
